Source: the supplement of paper PMC10849652
Some of the results follow.

Protein sequences, listed by entry. Tags and fused reporters are not part of them. Lines headed by an entry give the natural chain unless they say otherwise; changes in a name come on top.
UniProt Q08495: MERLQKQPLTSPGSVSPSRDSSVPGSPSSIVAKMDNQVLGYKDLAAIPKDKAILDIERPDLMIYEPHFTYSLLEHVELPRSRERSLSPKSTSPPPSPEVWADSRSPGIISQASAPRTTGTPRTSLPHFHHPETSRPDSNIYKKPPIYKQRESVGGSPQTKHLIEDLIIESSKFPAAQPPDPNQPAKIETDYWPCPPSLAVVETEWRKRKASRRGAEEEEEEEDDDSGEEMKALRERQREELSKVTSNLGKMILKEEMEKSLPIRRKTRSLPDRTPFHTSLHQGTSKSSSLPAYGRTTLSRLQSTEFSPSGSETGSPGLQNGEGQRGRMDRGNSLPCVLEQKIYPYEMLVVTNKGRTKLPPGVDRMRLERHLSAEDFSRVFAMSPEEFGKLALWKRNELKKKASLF
UniProt Q86SQ9: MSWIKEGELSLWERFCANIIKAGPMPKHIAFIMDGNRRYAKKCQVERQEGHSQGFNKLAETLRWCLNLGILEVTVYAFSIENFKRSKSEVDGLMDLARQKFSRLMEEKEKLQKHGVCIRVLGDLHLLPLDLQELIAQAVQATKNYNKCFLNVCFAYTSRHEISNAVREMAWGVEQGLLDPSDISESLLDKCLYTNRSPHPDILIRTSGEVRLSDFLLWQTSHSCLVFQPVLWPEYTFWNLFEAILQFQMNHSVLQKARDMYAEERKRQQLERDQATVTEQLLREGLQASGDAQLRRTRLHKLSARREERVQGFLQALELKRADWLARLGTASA
UniProt O43583: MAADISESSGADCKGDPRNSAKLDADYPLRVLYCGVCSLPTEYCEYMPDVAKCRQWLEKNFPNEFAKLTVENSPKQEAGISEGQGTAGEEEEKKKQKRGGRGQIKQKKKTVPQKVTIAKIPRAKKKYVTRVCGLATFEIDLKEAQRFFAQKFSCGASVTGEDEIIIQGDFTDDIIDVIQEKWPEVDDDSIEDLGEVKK
UniProt Q15700, whole entry, looked up: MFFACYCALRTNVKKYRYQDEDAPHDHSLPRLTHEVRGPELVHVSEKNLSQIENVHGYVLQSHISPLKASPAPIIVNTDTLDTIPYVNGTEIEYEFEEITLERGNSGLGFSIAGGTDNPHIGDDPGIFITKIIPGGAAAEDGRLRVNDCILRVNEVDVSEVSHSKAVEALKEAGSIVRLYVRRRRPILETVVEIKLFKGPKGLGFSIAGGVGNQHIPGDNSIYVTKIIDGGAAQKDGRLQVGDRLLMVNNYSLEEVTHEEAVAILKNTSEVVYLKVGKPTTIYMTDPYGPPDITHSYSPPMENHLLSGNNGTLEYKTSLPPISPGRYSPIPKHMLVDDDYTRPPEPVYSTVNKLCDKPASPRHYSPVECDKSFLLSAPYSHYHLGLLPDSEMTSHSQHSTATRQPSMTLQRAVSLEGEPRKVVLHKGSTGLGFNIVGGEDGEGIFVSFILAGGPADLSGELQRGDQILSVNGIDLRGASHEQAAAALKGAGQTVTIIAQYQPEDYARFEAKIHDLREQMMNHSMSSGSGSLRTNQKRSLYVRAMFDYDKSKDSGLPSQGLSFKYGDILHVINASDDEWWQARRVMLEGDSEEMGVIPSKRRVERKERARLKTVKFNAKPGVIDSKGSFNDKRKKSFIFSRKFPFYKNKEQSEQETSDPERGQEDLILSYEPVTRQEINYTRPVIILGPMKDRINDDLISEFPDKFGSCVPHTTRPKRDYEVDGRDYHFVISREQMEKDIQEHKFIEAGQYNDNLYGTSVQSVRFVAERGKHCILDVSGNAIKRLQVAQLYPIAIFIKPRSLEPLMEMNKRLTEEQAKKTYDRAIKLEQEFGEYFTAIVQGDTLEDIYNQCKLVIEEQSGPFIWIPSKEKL
UniProt P11532, whole entry, looked up: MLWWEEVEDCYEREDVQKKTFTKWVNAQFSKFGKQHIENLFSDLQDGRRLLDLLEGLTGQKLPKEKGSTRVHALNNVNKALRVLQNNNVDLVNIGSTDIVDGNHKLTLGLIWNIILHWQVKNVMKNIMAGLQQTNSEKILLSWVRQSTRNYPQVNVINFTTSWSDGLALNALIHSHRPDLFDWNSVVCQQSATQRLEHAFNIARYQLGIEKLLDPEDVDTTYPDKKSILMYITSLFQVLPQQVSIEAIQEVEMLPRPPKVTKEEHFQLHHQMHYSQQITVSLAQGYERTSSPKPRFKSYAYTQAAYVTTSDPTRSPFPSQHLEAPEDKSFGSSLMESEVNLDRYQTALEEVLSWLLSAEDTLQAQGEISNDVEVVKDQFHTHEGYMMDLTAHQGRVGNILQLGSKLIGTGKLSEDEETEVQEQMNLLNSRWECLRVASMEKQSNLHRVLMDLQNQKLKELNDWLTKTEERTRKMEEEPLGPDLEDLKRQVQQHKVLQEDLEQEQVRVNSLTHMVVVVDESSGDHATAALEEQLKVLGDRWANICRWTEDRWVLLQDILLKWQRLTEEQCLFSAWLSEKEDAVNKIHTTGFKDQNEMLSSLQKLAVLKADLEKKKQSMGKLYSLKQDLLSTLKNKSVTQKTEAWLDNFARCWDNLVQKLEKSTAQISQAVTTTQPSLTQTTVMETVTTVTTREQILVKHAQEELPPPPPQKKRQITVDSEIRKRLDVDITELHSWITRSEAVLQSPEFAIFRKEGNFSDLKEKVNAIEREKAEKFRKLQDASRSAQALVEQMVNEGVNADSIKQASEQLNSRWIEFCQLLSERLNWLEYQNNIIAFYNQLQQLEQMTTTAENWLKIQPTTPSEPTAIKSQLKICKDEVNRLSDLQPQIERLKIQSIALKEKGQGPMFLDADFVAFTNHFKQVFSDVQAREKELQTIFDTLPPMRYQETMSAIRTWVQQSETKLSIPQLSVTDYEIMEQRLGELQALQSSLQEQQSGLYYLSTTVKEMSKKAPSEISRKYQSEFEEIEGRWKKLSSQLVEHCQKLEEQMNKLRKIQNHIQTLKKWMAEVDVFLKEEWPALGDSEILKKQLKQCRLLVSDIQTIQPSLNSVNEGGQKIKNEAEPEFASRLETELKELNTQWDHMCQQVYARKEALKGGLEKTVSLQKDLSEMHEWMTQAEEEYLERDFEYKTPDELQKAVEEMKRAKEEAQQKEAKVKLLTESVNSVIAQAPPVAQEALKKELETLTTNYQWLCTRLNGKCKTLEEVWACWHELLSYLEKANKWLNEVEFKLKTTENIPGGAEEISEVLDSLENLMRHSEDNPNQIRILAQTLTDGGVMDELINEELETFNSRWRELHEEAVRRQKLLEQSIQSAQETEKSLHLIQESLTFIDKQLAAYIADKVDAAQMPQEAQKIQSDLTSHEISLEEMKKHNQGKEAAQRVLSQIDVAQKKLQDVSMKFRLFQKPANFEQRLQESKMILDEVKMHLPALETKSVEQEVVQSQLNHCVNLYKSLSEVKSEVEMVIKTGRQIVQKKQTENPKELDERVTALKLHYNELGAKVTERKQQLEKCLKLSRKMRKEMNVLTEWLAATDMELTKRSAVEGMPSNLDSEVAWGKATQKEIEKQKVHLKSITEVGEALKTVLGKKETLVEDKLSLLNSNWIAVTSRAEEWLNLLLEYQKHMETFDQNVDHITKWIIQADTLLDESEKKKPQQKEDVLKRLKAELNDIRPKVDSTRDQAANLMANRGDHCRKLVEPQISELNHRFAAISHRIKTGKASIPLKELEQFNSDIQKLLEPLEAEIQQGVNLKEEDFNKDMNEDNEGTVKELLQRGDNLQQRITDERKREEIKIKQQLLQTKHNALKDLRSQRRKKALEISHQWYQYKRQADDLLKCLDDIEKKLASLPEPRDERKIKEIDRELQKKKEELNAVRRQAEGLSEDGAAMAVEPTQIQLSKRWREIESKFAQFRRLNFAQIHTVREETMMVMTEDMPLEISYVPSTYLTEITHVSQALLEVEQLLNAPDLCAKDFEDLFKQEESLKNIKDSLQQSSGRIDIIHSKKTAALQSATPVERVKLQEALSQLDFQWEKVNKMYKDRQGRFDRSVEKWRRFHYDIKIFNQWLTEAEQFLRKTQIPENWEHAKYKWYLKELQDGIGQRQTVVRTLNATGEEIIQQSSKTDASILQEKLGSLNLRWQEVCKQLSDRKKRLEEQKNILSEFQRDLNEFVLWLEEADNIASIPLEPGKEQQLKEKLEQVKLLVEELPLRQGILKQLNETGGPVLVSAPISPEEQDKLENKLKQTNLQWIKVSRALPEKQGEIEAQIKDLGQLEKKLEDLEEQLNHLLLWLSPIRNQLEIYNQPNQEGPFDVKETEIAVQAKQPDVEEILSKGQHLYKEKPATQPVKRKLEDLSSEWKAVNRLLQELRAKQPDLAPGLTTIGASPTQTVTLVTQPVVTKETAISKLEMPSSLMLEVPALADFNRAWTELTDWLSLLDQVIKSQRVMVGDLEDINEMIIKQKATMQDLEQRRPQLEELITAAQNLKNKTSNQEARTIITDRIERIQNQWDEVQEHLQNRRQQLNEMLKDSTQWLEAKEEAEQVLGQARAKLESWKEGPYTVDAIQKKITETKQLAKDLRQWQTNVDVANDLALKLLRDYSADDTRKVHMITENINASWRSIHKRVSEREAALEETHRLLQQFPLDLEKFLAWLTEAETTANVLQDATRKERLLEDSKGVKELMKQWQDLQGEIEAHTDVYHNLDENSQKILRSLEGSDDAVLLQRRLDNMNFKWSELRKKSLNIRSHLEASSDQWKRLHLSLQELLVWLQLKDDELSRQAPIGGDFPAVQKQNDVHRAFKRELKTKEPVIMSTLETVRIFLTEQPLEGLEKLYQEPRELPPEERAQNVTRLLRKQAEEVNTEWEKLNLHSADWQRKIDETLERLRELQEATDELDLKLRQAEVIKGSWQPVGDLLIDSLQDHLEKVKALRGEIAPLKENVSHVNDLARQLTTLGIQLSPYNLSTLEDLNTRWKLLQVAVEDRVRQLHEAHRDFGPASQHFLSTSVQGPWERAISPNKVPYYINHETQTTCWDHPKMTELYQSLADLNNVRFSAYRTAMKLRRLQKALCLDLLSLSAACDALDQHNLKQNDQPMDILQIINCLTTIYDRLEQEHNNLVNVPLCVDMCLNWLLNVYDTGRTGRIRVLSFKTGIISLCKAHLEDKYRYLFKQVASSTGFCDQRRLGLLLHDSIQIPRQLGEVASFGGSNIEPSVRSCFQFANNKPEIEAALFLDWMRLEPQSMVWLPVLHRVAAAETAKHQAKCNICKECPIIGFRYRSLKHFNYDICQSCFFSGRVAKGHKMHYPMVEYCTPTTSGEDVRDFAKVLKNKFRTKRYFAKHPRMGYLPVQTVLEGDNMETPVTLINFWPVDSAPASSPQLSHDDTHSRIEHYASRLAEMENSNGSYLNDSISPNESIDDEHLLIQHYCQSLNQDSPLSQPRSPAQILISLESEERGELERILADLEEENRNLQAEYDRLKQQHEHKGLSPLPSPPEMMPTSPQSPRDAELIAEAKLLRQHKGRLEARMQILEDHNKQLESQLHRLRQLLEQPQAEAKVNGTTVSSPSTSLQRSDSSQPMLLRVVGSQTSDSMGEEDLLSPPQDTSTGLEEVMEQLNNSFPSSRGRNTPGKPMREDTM
UniProt Q13268: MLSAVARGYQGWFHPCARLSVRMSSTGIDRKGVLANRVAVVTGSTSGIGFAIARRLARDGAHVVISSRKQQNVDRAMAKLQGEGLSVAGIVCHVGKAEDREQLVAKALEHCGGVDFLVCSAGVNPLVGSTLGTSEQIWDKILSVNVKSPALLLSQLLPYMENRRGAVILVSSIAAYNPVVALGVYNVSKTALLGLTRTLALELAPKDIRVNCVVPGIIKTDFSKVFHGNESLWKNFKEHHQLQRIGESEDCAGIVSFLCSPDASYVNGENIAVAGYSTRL
UniProt Q9Y6V7: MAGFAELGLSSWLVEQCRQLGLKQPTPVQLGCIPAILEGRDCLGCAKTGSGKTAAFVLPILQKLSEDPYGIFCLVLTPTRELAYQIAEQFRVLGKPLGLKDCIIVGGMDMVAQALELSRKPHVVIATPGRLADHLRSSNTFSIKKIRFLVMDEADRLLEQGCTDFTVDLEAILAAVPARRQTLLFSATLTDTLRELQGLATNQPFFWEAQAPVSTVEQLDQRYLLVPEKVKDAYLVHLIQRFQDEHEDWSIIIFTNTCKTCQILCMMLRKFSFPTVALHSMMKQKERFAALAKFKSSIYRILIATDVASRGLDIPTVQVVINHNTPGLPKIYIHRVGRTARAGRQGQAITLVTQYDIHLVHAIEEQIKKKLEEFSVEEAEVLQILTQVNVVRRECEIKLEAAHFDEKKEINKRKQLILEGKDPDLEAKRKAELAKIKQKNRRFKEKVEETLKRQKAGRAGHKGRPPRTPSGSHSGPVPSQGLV
UniProt Q16854: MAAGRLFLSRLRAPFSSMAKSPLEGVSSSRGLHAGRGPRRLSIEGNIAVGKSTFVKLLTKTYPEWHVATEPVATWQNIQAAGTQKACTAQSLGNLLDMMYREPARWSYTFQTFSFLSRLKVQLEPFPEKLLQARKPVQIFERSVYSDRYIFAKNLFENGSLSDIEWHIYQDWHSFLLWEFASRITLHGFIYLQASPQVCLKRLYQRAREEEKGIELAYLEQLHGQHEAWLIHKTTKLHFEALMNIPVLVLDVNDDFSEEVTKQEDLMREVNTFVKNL

Experiments:
Assay in all cases: log2 fold change, soluble protein after heating vs DMSO (PISA); higher = thermal stabilisation; K562 cells, 10 uM, 30 min; active = over 0.2 and 3.5 SD of the protein, either way, in both replicates (recomputed)
saracatinib = compound: CN1CCN(CCOc2cc(OC3CCOCC3)c3c(Nc4c(Cl)ccc5c4OCO5)ncnc3c2)CC1 [saracatinib]
Outline: (§1)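 K562 cells at 2×10^6 cells/mL were given 10 μM compound for 30 min. Aliquots then went through 3 min of heating across 48°C-58°C, were pooled, and were extracted in PBS with 0.5% NP-40 at 4°C, and the supernatant after 21,000xg for 90 min was quantified by TMTpro 16plex LC-MS/MS with channel sums equalised. Thermal stability relative to control samples, from duplicates, is given as log2 fold change.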

sotrastaurin = compound: CN1CCN(c2nc(C3=C(c4c[nH]c5ccccc45)C(=O)NC3=O)c3ccccc3n2)CC1 [sotrastaurin]
Outline: as §1

alvocidib = compound: CN1CC[C@H](c2c(O)cc(O)c3c(=O)cc(-c4ccccc4Cl)oc23)[C@H](O)C1 [alvocidib]
Outline: as §1

Tubastatin A = compound: CN1CCc2c(c3ccccc3n2Cc2ccc(C(=O)NO)cc2)C1 [Tubastatin A]
Outline: as §1

[1] = compound: CNC(=O)C1=CC=CC=C1NC2=NC(=NC=C2Cl)NC3=C(C=C(C=C3)N4CCOCC4)OC
Outline: as §1

defactinib = compound: CNC(=O)c1ccc(Nc2ncc(C(F)(F)F)c(NCc3nccnc3N(C)S(C)(=O)=O)n2)cc1 [defactinib]
Outline: as §1

rucaparib = compound: CNCc1ccc(-c2[nH]c3cc(F)cc4c3c2CCNC4=O)cc1 [rucaparib]
Outline: as §1

[2] = compound: CNc1nc(-c2ccc3c(N)n[nH]c3c2)cc(N2C[C@@H](C(=O)NC3CCCCC3)CC[C@H]2C)n1
Outline: as §1

encorafenib = compound: COC(=O)N[C@@H](C)CNc1nccc(-c2cn(C(C)C)nc2-c2cc(Cl)cc(NS(C)(=O)=O)c2F)n1 [encorafenib]
Outline: as §1

[3] = compound: COC(=O)[C@H](CCSC)NC(=O)C1=C(C=C(C=C1)NC[C@H](CS)N)C2=CC=CC=C2
Outline: as §1

[4] = compound: COC1=CC=C(C=C1)CN2C=CC3=C2C=C(C=C3)C(=O)NO
Outline: as §1

filanesib = compound: CON(C)C(=O)N1N=C(c2cc(F)ccc2F)S[C@@]1(CCCN)c1ccccc1 [filanesib]
Outline: as §1

zotarolimus = compound: CO[C@H]1C[C@@H]2CC[C@@H](C)[C@@](O)(O2)C(=O)C(=O)N2CCCC[C@H]2C(=O)O[C@H]([C@H](C)C[C@@H]2CC[C@H](n3cnnn3)[C@H](OC)C2)CC(=O)[C@H](C)/C=C(\C)[C@@H](O)[C@@H](OC)C(=O)[C@H](C)C[C@H](C)/C=C/C=C/C=C/1C [zotarolimus]
Outline: as §1

idasanutlin = compound: COc1cc(C(=O)O)ccc1NC(=O)[C@@H]1N[C@@H](CC(C)(C)C)[C@](C#N)(c2ccc(Cl)cc2F)[C@H]1c1cccc(Cl)c1F [idasanutlin]
Outline: as §1

alisertib = compound: COc1cc(Nc2ncc3c(n2)-c2ccc(Cl)cc2C(c2c(F)cccc2OC)=NC3)ccc1C(=O)O [alisertib]
Outline: as §1

[5] = compound: COc1cc2nc(-c3cc(F)ccc3O)nc(N[C@@H]3CNC[C@H]3C(C)(C)O)c2cc1OC
Outline: as §1

gefitinib = compound: COc1cc2ncnc(Nc3ccc(F)c(Cl)c3)c2cc1OCCCN1CCOCC1 [gefitinib]
Outline: as §1

[6] = compound: COc1cccc2cc(-c3nc([C@H]4CC[C@H](C(=O)O)CC4)n4ncnc(N)c34)[nH]c12
Outline: as §1

lapatinib = compound: CS(=O)(=O)CCNCc1ccc(-c2ccc3ncnc(Nc4ccc(OCc5cccc(F)c5)c(Cl)c4)c3c2)o1 [lapatinib]
Outline: as §1

pictilisib = compound: CS(=O)(=O)N1CCN(Cc2cc3nc(-c4cccc5[nH]ncc45)nc(N4CCOCC4)c3s2)CC1 [pictilisib]
Outline: as §1

Measured: log2 fold change

DLAT (UniProt P10515)
inactive: saracatinib -0.214 | sotrastaurin -0.161 | alvocidib 0.154 | Tubastatin A 0.177 | [1] 0.013 | defactinib 0.244 | rucaparib 0.107 | [2] 0.038 | encorafenib 0.162 | [3] 0.024 | [4] -0.084 | filanesib 0.192 | zotarolimus 0.023 | idasanutlin 0.126 | alisertib -0.143 | [5] -0.154 | gefitinib -0.121 | [6] -0.238 | lapatinib 0.24 | pictilisib -0.128

DENND4A isoform 2 (UniProt Q7Z401)
inactive: saracatinib -0.102 | sotrastaurin -0.239 | alvocidib 0.014 | Tubastatin A 0.022 | defactinib -0.032 | rucaparib 0.016 | [2] 0.046 | encorafenib 0.186 | [3] 0.03 | [4] -0.249 | filanesib 0.095 | zotarolimus -0.258 | idasanutlin 0.055 | alisertib 1.17 | [5] -0.052 | gefitinib -0.069 | [6] -0.384 | lapatinib 0.145 | pictilisib -0.189

DDX17 (UniProt Q92841)
inactive: saracatinib -0.016 | sotrastaurin -0.059 | alvocidib -0.028 | Tubastatin A 0.008 | [1] 0.005 | defactinib -0.081 | rucaparib 0.013 | [2] 0.011 | encorafenib 0.083 | [3] -0.022 | [4] 0.047 | filanesib 0.047 | zotarolimus 0.01 | idasanutlin 0.007 | alisertib -0.046 | [5] 0.035 | gefitinib -0.023 | [6] 0.021 | lapatinib 0.036 | pictilisib 0.032

DMTN (UniProt Q08495)
inactive: saracatinib 0.053 | sotrastaurin 0.066 | alvocidib -0.055 | Tubastatin A 0.013 | [1] -0.025 | defactinib -0.06 | rucaparib -0.035 | [2] -0.036 | encorafenib -0.039 | [3] -0.009 | [4] 0 | filanesib 0.016 | zotarolimus 0.027 | idasanutlin 0.051 | alisertib -0.049 | [5] -0.04 | gefitinib 0.03 | [6] 0.027 | lapatinib -0.006 | pictilisib -0.012

Looked up one by one from the entries so far, two records:
DDX17 (UniProt Q92841)
inactive: saracatinib -0.016 | sotrastaurin -0.059 | alvocidib -0.028 | Tubastatin A 0.008 | [1] 0.005 | defactinib -0.081 | rucaparib 0.013 | [2] 0.011 | encorafenib 0.083 | [3] -0.022 | [4] 0.047 | filanesib 0.047 | zotarolimus 0.01 | idasanutlin 0.007 | alisertib -0.046 | [5] 0.035 | gefitinib -0.023 | [6] 0.021 | lapatinib 0.036 | pictilisib 0.032

DLAT (UniProt P10515)
inactive: saracatinib -0.214 | sotrastaurin -0.161 | alvocidib 0.154 | Tubastatin A 0.177 | [1] 0.013 | defactinib 0.244 | rucaparib 0.107 | [2] 0.038 | encorafenib 0.162 | [3] 0.024 | [4] -0.084 | filanesib 0.192 | zotarolimus 0.023 | idasanutlin 0.126 | alisertib -0.143 | [5] -0.154 | gefitinib -0.121 | [6] -0.238 | lapatinib 0.24 | pictilisib -0.128

Next part

DHDDS isoform 2 (UniProt Q86SQ9)
inactive: saracatinib 0.023 | sotrastaurin 0.037 | alvocidib 0.018 | Tubastatin A 0.011 | [1] 0.023 | defactinib -0.039 | rucaparib -0.017 | [2] -0.009 | encorafenib 0.03 | [3] -0.099 | [4] 0.038 | filanesib 0.066 | zotarolimus -0.009 | idasanutlin 0.002 | alisertib -0.036 | [5] 0.001 | gefitinib -0.001 | [6] -0.001 | lapatinib -0.005 | pictilisib 0.024

DDHD2 (UniProt O94830)
inactive: saracatinib 0.007 | sotrastaurin 0.005 | alvocidib -0.095 | Tubastatin A 0.007 | [1] -0.119 | defactinib -0.038 | rucaparib 0.009 | [2] -0.063 | encorafenib -0.052 | [3] -0.016 | [4] -0.025 | filanesib -0.137 | zotarolimus 0.011 | idasanutlin -0.041 | alisertib 0.006 | [5] -0.123 | gefitinib -0.041 | [6] 0.098 | lapatinib -0.025 | pictilisib 0.02

DENR (UniProt O43583)
inactive: saracatinib 0.053 | sotrastaurin 0.043 | alvocidib 0.033 | Tubastatin A -0.073 | [1] -0.046 | defactinib -0.028 | rucaparib -0.043 | [2] -0.021 | encorafenib -0.01 | [3] 0.048 | [4] -0.035 | filanesib -0.015 | zotarolimus -0.015 | idasanutlin 0.009 | alisertib -0.088 | [5] -0.025 | gefitinib 0.015 | [6] -0.03 | lapatinib -0.002 | pictilisib 0.028

DLG2 isoform 2 (UniProt Q15700)
inactive: saracatinib 0.012 | sotrastaurin -0.086 | alvocidib -0.057 | Tubastatin A -0.003 | [1] 0.009 | defactinib -0.018 | rucaparib -0.012 | [2] 0.001 | encorafenib 0.08 | [3] -0.09 | [4] -0.151 | filanesib 0.025 | zotarolimus -0.005 | idasanutlin 0.005 | alisertib 0.013 | [5] 0.001 | gefitinib 0.029 | [6] -0.131 | lapatinib -0.003 | pictilisib 0.032

DNAJA2 (UniProt O60884)
inactive: saracatinib 0.016 | sotrastaurin -0.01 | alvocidib -0.006 | Tubastatin A 0.025 | [1] 0.003 | defactinib -0.058 | rucaparib -0.012 | [2] -0.02 | encorafenib -0.002 | [3] -0.007 | [4] 0.032 | filanesib -0.026 | zotarolimus 0.002 | idasanutlin -0.05 | alisertib -0.044 | [5] 0.1 | gefitinib 0.02 | [6] 0.012 | lapatinib -0.022 | pictilisib -0.022

DDA1 (UniProt Q9BW61)
inactive: saracatinib -0.052 | sotrastaurin 0.021 | alvocidib -0.012 | Tubastatin A -0.008 | [1] -0.009 | defactinib -0.138 | rucaparib -0.055 | [2] 0 | encorafenib -0.045 | [3] -0.027 | [4] 0.01 | filanesib -0.006 | zotarolimus -0.035 | idasanutlin 0.006 | alisertib -0.062 | [5] 0.015 | gefitinib 0.005 | [6] 0.026 | lapatinib -0.011 | pictilisib 0.07

DMD (UniProt P11532)
inactive: saracatinib 0.066 | sotrastaurin -0.016 | alvocidib -0.017 | Tubastatin A 0.004 | [1] -0.008 | defactinib -0.05 | rucaparib -0.01 | [2] -0.024 | encorafenib 0.007 | [3] -0.007 | [4] -0.033 | filanesib -0.055 | zotarolimus -0.004 | idasanutlin 0.025 | alisertib 0.011 | [5] -0.012 | gefitinib 0.011 | [6] 0.017 | lapatinib 0.042 | pictilisib -0.023

DHRS2 (UniProt Q13268)
inactive: saracatinib 0.021 | sotrastaurin 0.02 | alvocidib -0.028 | Tubastatin A -0.012 | [1] 0.075 | defactinib -0.046 | rucaparib -0.012 | [2] 0.017 | encorafenib 0.027 | [3] 0.027 | [4] -0.034 | filanesib -0.014 | zotarolimus 0.035 | idasanutlin -0.152 | alisertib -0.046 | [5] 0.01 | gefitinib 0.018 | [6] 0.041 | lapatinib 0.041 | pictilisib 0.163

DDX49 (UniProt Q9Y6V7)
inactive: saracatinib -0.035 | sotrastaurin 0.085 | alvocidib 0.065 | Tubastatin A 0.025 | [1] 0.066 | defactinib 0.091 | rucaparib 0.078 | [2] 0.017 | encorafenib 0.074 | [3] -0.037 | [4] -0.052 | filanesib 0.213 | zotarolimus 0.001 | idasanutlin 0.055 | alisertib -0.138 | [5] -0.02 | gefitinib -0.041 | [6] -0.091 | lapatinib 0.1 | pictilisib 0.062

DGUOK (UniProt Q16854)
inactive: saracatinib 0.027 | sotrastaurin 0.041 | alvocidib 0.026 | Tubastatin A -0.043 | [1] -0.032 | defactinib 0 | rucaparib -0.033 | [2] -0.04 | encorafenib -0.024 | [3] 0.039 | [4] -0.022 | filanesib -0.032 | zotarolimus 0.005 | idasanutlin -0.04 | alisertib -0.054 | [5] 0.057 | gefitinib 0.004 | [6] 0.021 | lapatinib -0.018 | pictilisib 0.007

DDX18 (UniProt Q9NVP1)
inactive: saracatinib -0.286 | sotrastaurin -0.01 | alvocidib 0.156 | Tubastatin A 0.107 | rucaparib -0.018 | [2] 0.218 | encorafenib -0.155 | [4] -0.153 | filanesib 0.163 | zotarolimus 0.17 | idasanutlin 0.049 | alisertib -0.146 | [6] -0.626 | pictilisib 0.043
